Measurements reported in article PMC10721329, “Quisinostat is a brain-penetrant radiosensitizer in glioblastoma” (JCI Insight, 2023).
Several values for one entry are separate records, joined by “and”; a condition that tells them apart may be missing. Equal values may be shown once. This continues a long series; more values of the same kind are listed elsewhere.

Legend:
[1] = Stability in mouse plasma at 37°C; type: in vitro ADME; details: for [QST], % of control: replicates
Description: Hydroxamic acid–based compounds have been reported to display poor stability and high plasma clearance due to the presence of arylesterases and carboxylesterases in rodent blood ([34]). Therefore, we measured the stability of QST in mouse plasma and brain to determine whether drug degradation occurred during our sample preparations and equilibrium dialyses for the determination of unbound drug level (performed at 37°C). […] QST degradation was also observed in mouse brain homogenate (Figure 6B). However, perfusion of mice before brain collection prevented rapid drug degradation in the brain matrix. […] Degradation of QST can also be constrained if plasma and brain samples are processed at 4°C (Supplemental Figure 4A). All subsequent sample preparations were therefore performed on ice-cold baths to avoid degradation of QST in our PK analyses. […] The observed stability is probably due to the absence of esterases in human matrices, which are responsible for degradation of QST ([34]). Because we employed QST in several in vitro studies (Figures 1–4), the stability of the molecule was also tested in the cell media used to culture GSCs (neurobasal medium; see Methods).
Stability Study in Mouse Plasma, Mouse Brain, Human Plasma, Human Brain, and Neural […]
The stability of QST was determined in BALB/c mouse plasma, male nude athymic perfused and nonperfused mouse brain homogenate (1:9 w/v of PBS; pH 7.4), human brain (obtained from VRL Eurofins) homogenate (1:4 w/v of PBS; pH 7.4), pooled human plasma (Innovative Research), and neurobasal media. QST stock solutions (1 mM) were prepared in acetonitrile, subsequently diluted in a 40% methanol mixture, and added t o the matrices to make […]
[…] Then 50 or 30 µL of either plasma or brain homogenate containing QST were aliquoted into 1.5-mL microcentrifuge tubes (Eppendorf) and were incubated at either 4 °C or 37 °C for 0, 2, 4, 6, 12, or 24 hours (n = 3 at each time point).
The stability of QST in mouse plasma was also tested at 0, 2, 8, 16, or 24 hours (n = 3 at each time point) in the presence of esterase inhibitors: 0.25 mM BNPP, 1mM dithiobis(2-nitrobenzoic acid) (DTNB), or 1.25 mM phenylmethylsulfonyl fluoride (PMSF). Plasma and brain homogenate samples were stored at −80 °C until LC-MS/MS analysis. […]

[2] = system: orthotopic GB126 tumors; assay: Bioluminescence imaging of tumor burden, orthotopic GB126 PDX; type: in vivo, athymic nude mice; details: individual mice
Description: We additionally questioned whether QST, either alone or in combination with IR, could extend the survival of tumor-bearing mice. In this study, mice received the same treatments described above, but after completion of the 1-week IR regimen, mice continued to receive QST at 10 mg/kg or vehicle solution on MWF until study completion, as determined by large tumor burden and onset of neurological symptoms (Figure 8A). […] Although QST monotherapy slowed tumor growth, median survival for the QST-treated mice was only 4 days longer than for the vehicle-treated mice (P < 0.01), and IR alone increased median survival by 17 days (P < 0.001; Figure 8D). However, combining QST with IR led to a significant increase in median survival (37 days, P < 0.001) compared with the vehicle (Figure 8D). […]
Rad225XL irradiator (Precision X -Ray). […]
Live Bioluminescence Imaging
Two weeks after implantation, mice were examined for tumor growth by monitoring bioluminescence every 7 days using the IVIS Xenogen Spectrum platform. D -Luciferin Potassium Salt (Gold Biotechnology) was dissolved in PBS at a final concentration of 15 mg/mL. All mice were weighed each week and administered D -Luciferin via an intraperitoneal injection (10 μl/g). Fifteen minutes after injection, the mice were sedated using gaseous isoflurane (Piramal) and placed inside an IVIS Spectrum in vivo imaging system (Perkin Elmer) […]
for bioluminescence imaging. The total flux (photons/second) within the region of interest was calculated using the Living Image software 4.5 (Perkin Elmer).
Preparation of QST for In Vivo Use
For in vivo preparation, QST was dissolved in 50% polyethylene glycol (PEG) 300, 50% sterile water solution for 10 mg/kg dosing. The suspension was then sonicated for 10 minutes to allow the drug to completely dissolve. Finally, the pH of both the drug and the vehicle solutions was adjusted to 7.4 before intraperitoneal dosing. […]
In Vivo Irradiation Studies
Intracranial or flank tumor–bearing nude mice were sedated with gaseous isoflurane before
IR. On the first week of treatment, 2 hours after treatment with QST or vehicle, the mice were […]

[3] = mouse plasma 37C, 500 nM, Time 0
[4] = mouse plasma 37C, 500 nM, Time 1
[5] = mouse plasma 37C, 500 nM, Time 2
[6] = mouse plasma 37C, 500 nM, Time 4
[7] = mouse plasma 37C, 500 nM, Time 8

SMILES: Cn1cc(CNCC2CCN(c3ncc(C(=O)NO)cn3)CC2)c2ccccc21 [QST, quisinostat]
- [QST], % of control, Average ([1]; mouse plasma 37C, 10nM, Time 0): 100.0%
- [QST], % of control ([1]; mouse plasma 37C, 10nM, Time 0): 96.1% and 98.4% and 105.5%
- [QST], % of control, Average ([1]; mouse plasma 37C, 10nM, Time 1): 43.2%
- [QST], % of control ([1]; mouse plasma 37C, 10nM, Time 1): 41.3% and 43.5% and 44.8%
- [QST], % of control, Average ([1]; mouse plasma 37C, 10nM, Time 2): 16.6%
- [QST], % of control ([1]; mouse plasma 37C, 10nM, Time 2): 17.1% and 16.8% and 16.0%
- [QST], % of control, Average ([1]; mouse plasma 37C, 10nM, Time 4): 3.0%
- [QST], % of control ([1]; mouse plasma 37C, 10nM, Time 4): 2.9% and 3.1%
- [QST], % of control, Average ([1]; mouse plasma 37C, 10nM, Time 8): 2.2%
- [QST], % of control ([1]; mouse plasma 37C, 10nM, Time 8): 2.6% and 2.0% and 2.1%
- [QST], % of control, Average [1, 3]: 100.0%
- [QST], % of control [1, 3]: 95.4% and 99.9% and 104.7%
- [QST], % of control, Average [1, 4]: 39.7%
- [QST], % of control [1, 4]: 38.2% and 40.9% and 39.9%
- [QST], % of control, Average [1, 5]: 15.1%
- [QST], % of control [1, 5]: 14.0% and 16.4% and 15.0%
- [QST], % of control, Average [1, 6]: 1.3%
- [QST], % of control [1, 6]: 1.4% and 1.3%
- [QST], % of control, Average [1, 7]: 0.1%
- [QST], % of control [1, 7]: 0.0874% and 2.5% and 0.11%
- [QST], % of control ([1]; mouse plasma, 10 nM, Time 0 hrs as printed): 96.1% and 98.4% and 105.5%
- [QST], % of control ([1]; mouse plasma, 10 nM, Time 2 hrs as printed): 41.3% and 43.5% and 44.8%
- [QST], % of control ([1]; mouse plasma, 10 nM, Time 4 hrs as printed): 17.1% and 16.8% and 16%
- [QST], % of control ([1]; mouse plasma, 100 nM, Time 0 hrs as printed): 95.4% and 99.9% and 104.7%
- [QST], % of control ([1]; mouse plasma, 100 nM, Time 2 hrs as printed): 38.2% and 40.9% and 39.9%
- [QST], % of control ([1]; mouse plasma, 100 nM, Time 4 hrs as printed): 14% and 16.4% and 15%
- IVIS imaging, bioluminescence ([2]; Qstat 10 mg/kg + IR 6 Gy, day 15 post Tx start): 26800000 photons/seconds and 37200000 photons/seconds and 120000 photons/seconds and 14500000 photons/seconds and 62700000 photons/seconds and 53400000 photons/seconds and 14400000 photons/seconds and 172000 photons/seconds and 4050000 photons/seconds and 3070000 photons/seconds
- IVIS imaging, bioluminescence ([2]; Qstat 10 mg/kg + IR 6 Gy, day 22 post Tx start): 9630000 photons/seconds and 31100000 photons/seconds and 54800000 photons/seconds and 12000000 photons/seconds and 57600000 photons/seconds and 1060000 photons/seconds and 9290000 photons/seconds (2×) and 3550000 photons/seconds and 41500000 photons/seconds
- IVIS imaging, bioluminescence ([2]; Qstat 10 mg/kg alone, day 15 post Tx start): 50000000 photons/seconds and 4160000 photons/seconds and 3400000 photons/seconds and 1340000 photons/seconds
- IVIS imaging, bioluminescence ([2]; Qstat 10 mg/kg alone, day 22 post Tx start): 158000000 photons/seconds and 3200000000 photons/seconds and 263000000 photons/seconds and 2150000000 photons/seconds and 1030000000 photons/seconds and 5630000000 photons/seconds and 483000000 photons/seconds and 3670000000 photons/seconds and 83600000 photons/seconds and 685000000 photons/seconds
